# PubChem BioAssay AID652243 | Drosophila RNAi Screening Center – 2013
# Purpose: 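Knock-downs that decrease or increase androgen receptor reporter signal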 (primary screen)
# Cells: Drosophila S2R+ cells
# Reagents: long dsRNA against Drosophila genes
# Time to read-out: 72 h (48 h, then 24 h hormone)
# Challenge: synthetic androgen R1881 at 10 nM for 24 h
# Measured: 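Firefly light from an androgen-responsive reporter and Renilla control light per well, raw and unnormalised, for each of two replicates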
# Direction: firefly reporter light: higher = more light from androgen-responsive reporter; Renilla control light: higher = more constitutive control signal (cell number, transfection)
# Hit rule: 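Hit when the log firefly-to-Renilla ratio dropped or increased by a fixed fold versus the mean of GFP or LacZ controls across duplicate plates; lowering cut given as 1.5 and as 3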
# Meaning of the calls: active = hit: reporter lowered or raised; inactive = no hit
# The screen tested about 24,000 reagents; below is an unselected part of those with a known target gene and a result. Over the whole deposit, 246 (1%) got an active call. 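Plates not normalised; calls are printed but the firefly/Renilla ratio behind them is not deposited; fold cut for lowering reported inconsistently.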 Raw values are not corrected between plates. No sequences are given here. Not given: the amount of reagent.
predicted target,dsRNA,"firefly reporter light, replicate 1","firefly reporter light, replicate 2","Renilla control light, replicate 1","Renilla control light, replicate 2",activity call
woc (GeneID 47249),DRSC15928,1.24e5,99859,3.56e5,4.64e5,inactive
CG14668 (GeneID 40646),DRSC12254,49653,63761,1.33e6,1.40e6,inactive
Cpr65Ay (GeneID 5740348),DRSC38850,6.71e5,7.47e5,1.57e6,1.67e6,inactive
Ent2 (GeneID 33921),DRSC02124,8.51e5,8.78e5,1.74e6,1.15e6,inactive
Ent2 (GeneID 33921),DRSC28879,4.56e5,4.43e5,1.32e6,1.32e6,inactive
Cyp310a1 (GeneID 35115),DRSC03301,9.40e5,7.36e5,1.55e6,1.32e6,inactive
Cyp310a1 (GeneID 35115),DRSC29160,4.15e5,4.16e5,1.39e6,9.80e5,inactive
CG32536 (GeneID 32922),DRSC28001,5.95e5,3.87e5,1.81e6,9.64e5,inactive
hwt (GeneID 32202),DRSC19386,2.06e5,2.93e5,2.04e6,3.11e6,inactive
hwt (GeneID 32202),DRSC19695,6.66e5,6.15e5,3.83e6,3.52e6,inactive
hwt (GeneID 32202),DRSC23728,1.06e6,1.19e6,1.10e6,1.57e6,inactive
hwt (GeneID 32202),DRSC25353,7.12e5,9.05e5,1.14e6,1.15e6,inactive
hwt (GeneID 32202),DRSC29662,4.09e5,5.95e5,1.48e6,1.48e6,inactive
Dus4 (GeneID 35179),DRSC02066,1.06e6,7.88e5,1.66e6,1.42e6,inactive
CG13484 (GeneID 39560),DRSC10026,1.85e5,1.37e5,9.01e5,1.41e6,inactive
CG13484 (GeneID 39560),DRSC26663,2.23e5,3.30e5,4.04e5,4.54e5,inactive
CG13563 (GeneID 37845),DRSC22153,6.66e5,5.25e5,8.63e5,7.25e5,inactive
Vsx2 (GeneID 31469),DRSC18088,3.51e5,5.35e5,2.85e6,2.45e6,inactive
Vsx2 (GeneID 31469),DRSC23089,8.20e5,8.63e5,8.51e5,9.04e5,inactive
Vsx2 (GeneID 31469),DRSC23273,5.53e5,6.59e5,8.72e5,9.96e5,inactive
ase (GeneID 30985),DRSC18739,2.11e5,2.45e5,3.26e6,2.66e6,inactive
Trs20 (GeneID 39769),DRSC10489,2.15e5,1.47e5,1.83e6,1.45e6,inactive
RabX1 (GeneID 44172),DRSC04678,1.85e5,1.93e5,1.79e6,1.38e6,inactive
Arp1 (GeneID 41566),DRSC14118,53363,51673,1.04e6,1.13e6,inactive
Arp1 (GeneID 41566),DRSC26164,4.07e5,2.73e5,5.90e5,6.77e5,inactive

Ordered by “firefly reporter light, replicate 1” (lowest first): some entries from above.
predicted target,dsRNA,"firefly reporter light, replicate 1","firefly reporter light, replicate 2","Renilla control light, replicate 1","Renilla control light, replicate 2",activity call
Arp1 (GeneID 41566),DRSC14118,53363,51673,1.04e6,1.13e6,inactive
RabX1 (GeneID 44172),DRSC04678,1.85e5,1.93e5,1.79e6,1.38e6,inactive
Arp1 (GeneID 41566),DRSC26164,4.07e5,2.73e5,5.90e5,6.77e5,inactive
